From PMC4863740
Substitutions are numbered along the chain they refer to. For at least one entry, the source does not settle the construct or the ends of the probe. For some assays here: No signal at the amounts used counts as a negative. Protein sequences can lack the tags named with them.

Assays:
[1] = target: T1, NANOG homeodomain N51A N146A (UniProt Q80Z64); assay: EMSA; settings: EMSA: 10 mM Hepes pH 7.9, 10% glycerol, 50 mM KCl, 10 mM NaCl, 0.4 mM EDTA, 2.5 mM DTT, 0.25% Tween 20, 100 ug/ml dI:dC, 1 mg/ml BSA, 10 nM oligonucleotide; recombinant protein; protein details: His; label: 5' IR700 on upper strand
T1 sequence (looked up, limits assumed): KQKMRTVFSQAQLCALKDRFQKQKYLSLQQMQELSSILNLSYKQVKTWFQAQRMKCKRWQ

[2] = target: T2, NANOG homeodomain wild-type (UniProt Q80Z64); assay: EMSA; settings: EMSA: 10 mM Hepes pH 7.9, 10% glycerol, 50 mM KCl, 10 mM NaCl, 0.4 mM EDTA, 2.5 mM DTT, 0.25% Tween 20, 100 ug/ml dI:dC, 1 mg/ml BSA, 10 nM oligonucleotide; recombinant protein; protein details: His; label: 5' IR700 on upper strand
T2 sequence (looked up, limits assumed): T1 sequence (looked up, limits assumed) with A51N

## CTGTTAATGGGAGC (double strand) [Tcf3 promoter NANOG-binding site probe (14 bp)]
[1]
  binding result: no binding
[2]
  binding result: binds
